Source: PubChem BioAssay AID686943 (Drosophila RNAi Screening Center, 2013)
Screen: 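Fly genes whose loss alters ERK activation after insulin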 (primary screen). Cells: Drosophila S2R+ haemocyte-like cells expressing YFP-tagged ERK (Rolled). Reagent: long dsRNA against Drosophila genes. Treatment: insulin stimulation versus unstimulated cells; dose and duration not given. Read-out: 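Antibody staining for doubly phosphorylated ERK divided by ERK-YFP signal, as plate z-scores, in insulin-treated and untreated cells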. Reading the numbers: replicate 1, z-score of dpERK with insulin: higher = more active ERK per ERK-YFP after insulin.
The screen tested about 23,000 reagents; this is an unselected part of those that have a named target and a result. 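Extra replicates exist only for a retested subset of genes; insulin dose and duration not given; both raised and lowered dpERK matter.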 Not all columns of the deposit are shown. Not stated in the record: the amount of reagent, the time to read-out.

{"gene": "bonsai (GeneID 37587)", "DRSC id": "DRSC04453", "replicate 1, z-score of dpERK with insulin": -1.12}
{"gene": "Tdc1 (GeneID 35573)", "DRSC id": "DRSC04942", "replicate 1, z-score of dpERK with insulin": -1.66}
{"gene": "CG1304 (GeneID 33074)", "DRSC id": "DRSC20494", "replicate 1, z-score of dpERK with insulin": 0.38}
{"gene": "CG4390 (GeneID 42396)", "DRSC id": "DRSC15572", "replicate 1, z-score of dpERK with insulin": 0.62}
{"gene": "CG34457 (GeneID 5740661)", "DRSC id": "DRSC06924", "replicate 1, z-score of dpERK with insulin": 0.56}
{"gene": "eIF1A (GeneID 44260)", "DRSC id": "DRSC16937", "replicate 1, z-score of dpERK with insulin": -1.4}
{"gene": "CG17111 (GeneID 42727)", "DRSC id": "DRSC15174", "replicate 1, z-score of dpERK with insulin": 0.01}
{"gene": "rho-6 (GeneID 34640)", "DRSC id": "DRSC02588", "replicate 1, z-score of dpERK with insulin": 0.04}
{"gene": "CG31954 (GeneID 33572)", "DRSC id": "DRSC00580", "replicate 1, z-score of dpERK with insulin": 0.37}
{"gene": "Kat60 (GeneID 53566)", "DRSC id": "DRSC12378", "replicate 1, z-score of dpERK with insulin": 0.88}
{"gene": "CG11878 (GeneID 43050)", "DRSC id": "DRSC14422", "replicate 1, z-score of dpERK with insulin": -0.02}
{"gene": "CG42335 (GeneID 42558)", "DRSC id": "DRSC14597", "replicate 1, z-score of dpERK with insulin": 0.8}
{"gene": "CG42335 (GeneID 42558)", "DRSC id": "DRSC15892", "replicate 1, z-score of dpERK with insulin": 0.56}
